PubChem BioAssay AID540276 (National Center for Advancing Translational Sciences (NCATS), 2011)
Values joined by “and” are separate entries in the source; they are usually repeats but may differ in a detail not shown here. Equal entries are not always repeated. About 5,400 (1.8%) of roughly 300,000 compounds were called active. This list was built around the results that the source calls inconclusive (neither active nor inactive); the mix of calls is not that of the screen. The call rests on the fitted dose curve; tested in HEK293 cells. Potencies beside an inconclusive call are fits to weak or partial responses and may not hold up.

assay: qHTS for inhibitors of binding or entry into cells for Marburg Virus; conditions: Marburg virus pseudotyped entry inhibition, cell reporter; series mostly up to 37.8 µM
Potency means the concentration at half of the fitted maximal effect.

SMILES | Potency
CC(C)COc1cccc(C(=O)Nc2ccc(N3CCOCC3)cc2N2CCOCC2)c1 | inconclusive: 22.4 µM [inhibitor, partial curve, poor fit]
O=C(CN1CCN(c2ncc(C(F)(F)F)cc2Cl)CC1)NC(=O)NCc1ccccc1 | inactive
COc1ccccc1N1CCN(C(=O)CSc2ncccc2-c2nc3ccccc3[nH]2)CC1 | inactive and inconclusive: 29.1 µM [inhibitor, single point]
COc1ccc(-c2cc(C(=O)NCC3CCCO3)c3ccccc3n2)c(OC)c1 (stereo not drawn) | inactive
S=C(Nc1ccc(Br)cc1)N1CCn2cccc2C1c1cccnc1 (stereo not drawn) | inactive
Cc1ccc(NC(=S)N/N=C/c2c(C)[nH]c3ccccc23)cc1 | inconclusive: 14.1 µM [inhibitor, partial curve, poor fit]
FC(F)Oc1ccc(NC(=S)NNc2ccnc3cc(Cl)ccc23)cc1 | active: 11.2 µM
COc1cc([C@@H]2[C@H]3CNCC=C3C(C#N)=C(N)C2(C#N)C#N)ccc1OC(C)C | inconclusive: 35.5 µM [inhibitor, partial curve, poor fit]
Cc1cc(=O)n2[nH]cc(-c3ccccc3)c2n1 | inconclusive: 2.51 µM [activator, full curve, poor fit]
CCOC(=O)C(Cc1ccc(OC)c([N+](=O)[O-])c1)NC(=O)CCC(=O)Nc1ccc(OC)cc1 (stereo not drawn) | inactive
O=C(CCC1CCCN(C(=O)c2ccc(F)c(F)c2)C1)N1CCN(c2ccccn2)CC1 (stereo not drawn) | inactive
COc1ccc(CN2CCN(C(=O)CN3C(=O)C4C5C=CC(C5)C4C3=O)CC2)c(OC)c1OC (stereo not drawn) | inconclusive: 11.2 µM [inhibitor, single point]
CC(C)=C1C2CCC1C1C(=O)N(NC(=O)COc3ccc(C(C)(C)C)cc3)C(=O)C21 (stereo not drawn) | inconclusive: 28.2 µM [inhibitor, single point]
Cc1cc(C)c(NC(=O)CN)c(C)c1 | inconclusive: 3.98 µM [inhibitor, single point]
COc1ccccc1CNC(=O)COC(=O)c1c[nH]c2ccccc12 | inconclusive: 22.4 µM [inhibitor, partial curve, poor fit]
O=C(c1ccsc1)N1CCCC(N2CCN(c3cccc(C(F)(F)F)c3)CC2)C1 (stereo not drawn) | inconclusive: 11.2 µM [inhibitor, partial curve, poor fit]
COc1ccc(N(CC(=O)NCCc2ccc(C)cc2)S(=O)(=O)c2c(C)nn(C)c2C)cc1 | inactive
Cc1cc(Cl)c2oc(C(=O)N(C)CCCCN3CCOCC3)c(C)c2c1 | inactive
O=C(COc1ccc(Cl)cc1Cl)NN=C1c2ccccc2-c2ccccc21 | inactive
CC(C)Cn1c(CN2CCN(c3cccc(Cl)c3)CC2)nc2c1c(=O)[nH]c(=O)n2C | inconclusive: 7.08 µM [inhibitor, full curve, poor fit]
COc1cc(OC)cc(-c2nnc(SCC(=O)c3ccc([N+](=O)[O-])cc3)o2)c1 | inconclusive: 3.98 µM [inhibitor, partial curve, poor fit]
COc1ccccc1N=c1oc2cc(O)ccc2cc1C(=O)NCC1CCCO1 (stereo not drawn) | inactive
CCn1c(SCC(=O)Nc2ccccc2OC)nnc1-c1cnccn1 | inconclusive: 0.326 µM [inhibitor, full curve]

Given tab-delimited: entries from further up
SMILES	Potency
CC(C)COc1cccc(C(=O)Nc2ccc(N3CCOCC3)cc2N2CCOCC2)c1	inconclusive: 22.4 µM [inhibitor, partial curve, poor fit]
O=C(CN1CCN(c2ncc(C(F)(F)F)cc2Cl)CC1)NC(=O)NCc1ccccc1	inactive
COc1ccccc1N1CCN(C(=O)CSc2ncccc2-c2nc3ccccc3[nH]2)CC1	inactive and inconclusive: 29.1 µM [inhibitor, single point]
COc1ccc(-c2cc(C(=O)NCC3CCCO3)c3ccccc3n2)c(OC)c1 (stereo not drawn)	inactive
S=C(Nc1ccc(Br)cc1)N1CCn2cccc2C1c1cccnc1 (stereo not drawn)	inactive
Cc1ccc(NC(=S)N/N=C/c2c(C)[nH]c3ccccc23)cc1	inconclusive: 14.1 µM [inhibitor, partial curve, poor fit]
FC(F)Oc1ccc(NC(=S)NNc2ccnc3cc(Cl)ccc23)cc1	active: 11.2 µM
COc1cc([C@@H]2[C@H]3CNCC=C3C(C#N)=C(N)C2(C#N)C#N)ccc1OC(C)C	inconclusive: 35.5 µM [inhibitor, partial curve, poor fit]
Cc1cc(=O)n2[nH]cc(-c3ccccc3)c2n1	inconclusive: 2.51 µM [activator, full curve, poor fit]
CCOC(=O)C(Cc1ccc(OC)c([N+](=O)[O-])c1)NC(=O)CCC(=O)Nc1ccc(OC)cc1 (stereo not drawn)	inactive
O=C(CCC1CCCN(C(=O)c2ccc(F)c(F)c2)C1)N1CCN(c2ccccn2)CC1 (stereo not drawn)	inactive
COc1ccc(CN2CCN(C(=O)CN3C(=O)C4C5C=CC(C5)C4C3=O)CC2)c(OC)c1OC (stereo not drawn)	inconclusive: 11.2 µM [inhibitor, single point]
CC(C)=C1C2CCC1C1C(=O)N(NC(=O)COc3ccc(C(C)(C)C)cc3)C(=O)C21 (stereo not drawn)	inconclusive: 28.2 µM [inhibitor, single point]
Cc1cc(C)c(NC(=O)CN)c(C)c1	inconclusive: 3.98 µM [inhibitor, single point]
COc1ccccc1CNC(=O)COC(=O)c1c[nH]c2ccccc12	inconclusive: 22.4 µM [inhibitor, partial curve, poor fit]
O=C(c1ccsc1)N1CCCC(N2CCN(c3cccc(C(F)(F)F)c3)CC2)C1 (stereo not drawn)	inconclusive: 11.2 µM [inhibitor, partial curve, poor fit]
COc1ccc(N(CC(=O)NCCc2ccc(C)cc2)S(=O)(=O)c2c(C)nn(C)c2C)cc1	inactive
Cc1cc(Cl)c2oc(C(=O)N(C)CCCCN3CCOCC3)c(C)c2c1	inactive
O=C(COc1ccc(Cl)cc1Cl)NN=C1c2ccccc2-c2ccccc21	inactive

(continued)

SMILES | Potency
CCOC(=O)C1CCCN(Cc2cc(OC)c(O)c(OC)c2)C1 (stereo not drawn) | inactive
CCOC(=O)c1c(NC(=S)N2CCCCC2)sc2c1CCN(C(=O)OCC)C2 | inconclusive: 35.5 µM [inhibitor, single point]
O=C(NCCc1ccc(Cl)cc1)c1nnc(Cc2ccc(Cl)cc2Cl)o1 | inactive
CCC(c1nnnn1Cc1ccco1)N1CCN(c2cc(Cl)ccc2C)CC1 (stereo not drawn) | inactive
OC(CCN1CCOCC1)c1ccccc1 (stereo not drawn) | inactive
C[C@H](NC(=O)[C@@H]1CSC2c3ccccc3C(=O)N21)C(=O)NCCc1ccc(F)cc1 (stereo partly drawn) | inactive
O=C(c1ccco1)N1CCN(c2c([N+](=O)[O-])nn(-c3ccc(Cl)cc3)[n+]2[O-])CC1 | inactive
COc1ccc(-c2cc(C(F)(F)F)c(C#N)c(SCC(=O)Nc3nc(C)co3)n2)cc1 | inconclusive: 7.3 µM [inhibitor, partial curve, poor fit]
CC(C)Cn1c(-c2ccccc2Cl)nc2ccccc21 | inactive
C=CCc1c(C)nc(-c2ccccc2)nc1N/N=C(\C)c1ccc(N)cc1 | inactive
O=C(COC(=O)c1ccccc1OC(F)F)Nc1ccc2[nH]c(=O)[nH]c2c1 | inactive
CCOC(=O)C1(Cc2cccc(OC)c2)CCCN(C(=O)c2cc(C)[nH]n2)C1 (stereo not drawn) | inconclusive: 7.94 µM [activator, partial curve, poor fit]
N#Cc1ccccc1CSc1nnc(Cc2ccccc2)o1 | inactive
O=C(CCNC(=O)c1ccc(Cl)cc1)Nc1ccc(Cl)cc1F | inconclusive: 20 µM [activator, single point]
CCOC(=O)c1cnc(-n2nc(C)cc2C)nc1Nc1ccc(C)cc1 | inconclusive: 12.6 µM [activator, single point]
COc1ccc(NC(=S)N2CCN(C(c3ccccc3)c3ccccc3)CC2)c(OC)c1 | inconclusive: 35.5 µM [inhibitor, single point]
CC(=O)Nc1ccc(S(=O)(=O)NC2(C(F)(F)F)NC(=O)N(C3CCCC3)C2=O)cc1 (stereo not drawn) | inconclusive: 32.6 µM [activator, single point]
O=S(=O)(c1c(Cl)cc(Br)cc1Cl)N1CCN(C(=S)NC2CC2)CC1 | inconclusive: 3.55 µM [inhibitor, full curve, poor fit]
Cc1ccccc1S(=O)(=O)NC1OC(=O)C(Oc2ccccc2)=C1Br (stereo not drawn) | inactive
O=C(COC(=O)Cc1ccccc1F)NNC(=O)c1ccc(Cl)cc1 | inconclusive: 17.8 µM [activator, single point]
CN(C)CC(=O)N1c2ccccc2CCc2ccc(NC(=O)c3ccc(N)cc3)cc21 | inconclusive: 22.4 µM [inhibitor, single point]
COc1ccc(NS(=O)(=O)c2cc(NC(=O)[C@@H](NC(=O)c3ccccc3)C(C)C)ccc2C)cc1 | inconclusive: 15.8 µM [inhibitor, single point]
COCCCNC(=O)CCCn1c(=O)c2ccccc2n(CC(=O)Nc2ccc(C)cc2Cl)c1=O | inactive

SMILES | Potency
CCC(C(=O)NC1CCCCC1)N(Cc1cccs1)C(=O)CCC(=O)Nc1cc(C)on1 (stereo not drawn) | inconclusive: 7.08 µM [inhibitor, full curve, poor fit]
Cc1n[nH]c(C)c1S(=O)(=O)N1CCCC(C(=O)N2CCN(c3ccc(Cl)cc3)CC2)C1 (stereo not drawn) | inconclusive: 12.6 µM [inhibitor, single point]
Cc1cc(C)n2nc(C(=O)N/N=C/c3ccc(Cl)cc3)nc2n1 | inactive
CC(=O)Oc1ccc(-c2ccc(C(=O)NCCc3ccc(S(N)(=O)=O)cc3)cc2)cc1 | inconclusive: 12.6 µM [inhibitor, partial curve, poor fit]
O=C1C(Cc2cccc([N+](=O)[O-])c2)SC(=Nc2ccccc2)N1c1ccccc1 (stereo not drawn) | inconclusive: 8.91 µM [inhibitor, single point]
COc1ccccc1C(=O)Nc1ccc2c(c1)nc(CCNC(=O)c1ccco1)n2C | inconclusive: 0.316 µM [inhibitor, full curve, poor fit]
Cc1ccc(NC(=O)c2oc3ccccc3c2COC(C)C)cc1S(=O)(=O)N1CCOCC1 | inconclusive: 35.5 µM [inhibitor, single point]
COc1ccccc1NC(=S)N(Cc1ccco1)Cc1cc2cccc(C)c2[nH]c1=O | inconclusive: 35.5 µM [inhibitor, single point]
Cc1ccc(S(=O)(=O)n2c(CN3CCCC(C)C3)nc3ccccc32)cc1 (stereo not drawn) | inconclusive: 29.1 µM [inhibitor, single point]
C[C@H]1Cc2c(-c3ccccc3)nc3c(c2CO1)CN(C(=O)Cc1cccs1)CC3 | inactive
CCCCCCCCCCOC(=O)Cn1c(COc2ccccc2C)[n+](C)c2ccccc21 | active: 25.1 µM
CCC(=O)N1CCN(c2ccccc2NC(=O)COc2ccccc2Cl)CC1 | inconclusive: 23.1 µM [inhibitor, single point]
CCc1noc(C)c1C(=O)Nc1nc(-c2ccc(Cl)cc2Cl)cs1 | inconclusive: 6.51 µM [inhibitor, single point]
CCCc1nc2ccccc2c(C(=O)OCC(=O)NCc2ccc3c(c2)OCO3)c1CC | inactive
COc1ccc(C2C=C(c3ccccc3)Nc3nnnn32)cc1 (stereo not drawn) | inactive
COc1cccc(/C=N/NC(=O)c2cccc([N+](=O)[O-])c2)c1OS(=O)(=O)c1ccccc1 | inconclusive: 16.4 µM [inhibitor, partial curve, poor fit]
Cc1occc1C(=O)Nc1ccccc1NC(=O)c1ccoc1C | inactive
Cc1cc(N2CCN(C(=O)c3ccco3)CC2)n2nc(-c3cccc(F)c3)cc2n1 | inconclusive: 29.1 µM [inhibitor, single point]
CC(=O)c1cccc(N/C=C\C(=O)c2ccc(C)cc2)c1 | inconclusive: 8.91 µM [inhibitor, partial curve, poor fit]
O=C(CCN1CCOCC1)NNC(=O)Nc1cccc([N+](=O)[O-])c1 | inconclusive: 7.08 µM [activator, partial curve, poor fit]
CCOC(=O)Cn1nc(/C=C/c2ccc(C)cc2)ccc1=O | inconclusive: 35.5 µM [activator, single point]
Cc1[nH]c2ccccc2c1/C=C/C(=O)c1ccccc1 | inactive
